Consider two molecules from patent US20250215070A1.

For this assay, the target named is CTHRC1 (species not stated). The assay is described as follows: ELISA. (In an ELISA, binding on a coated surface is turned into a signal by an enzyme label.)

No constants are given. Whether binding was seen depends on the method and setting. Binding calls can cover weak binding; strength is not graded here.

B1: CTHRC1S-M5 (antibody, V domains shown)
VH: EVQLVESGGGLVTPGGSLRLSCAASGFTFSTYSMNWVRQAPGKGLEWVSSISGSSGHIYYADSVRGRFTISRDNAKNSLYLQMNSLRAEDTAVYYCASMHYYYYLDVWGKGTTVTVSS
VL: QAVVTQESALTTSPGETVTLTCRSSTGTVTTSNYVTWVQEKPDHLFTGLIGATNNRAPGVPARFSGSLIGDKAALTITGAQTEDEAIYFCALWYSNHWVFGGGTKLTVL
For B1, the binding result is given as “binds”.

B2: CTHRC1S-M11 (antibody, V domains shown)
VH: QVTLRESGPALVKPTQTLTLTCTFSGFSLSTNVMCVSWIRQPPGKALEWLALIDWDDDKYYSTSLKTRLTISKDTSKNQVVLTMTNMDPVDTATYYCARTGITGTHYYYYYMDVWGKGTTVTVSS
VL: AIQMTQSPSSLSASVGDRVTITCRASQGIRNDLGWYQQKPGKAPKLLIYAASSLQSGVPSRFSGSGFGTDFTLTISSLQPEDFATYYCLQDYNYPWTFGQGTKVEIK
For B2, the binding result is “binds”.
